# Measured values: the supplement of paper PMC8256030
# Several values for one entry are separate records, joined by “and”; a condition that tells them apart may be missing. Equal entries are not always repeated. The list shows a part of the results. Single values are uncertain here, since repeats match poorly.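 HEK293T cells were given each compound shortly before transfection with a reporter in which red mCherry is followed by the SARS-CoV-2 frameshift element and then GFP in the −1 frame, so GFP appears only after frameshifting.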
# Test system: HEK293T
# Assay: percent viability (nuclei count) relative to control; higher = more viable cells
# Details: 10 µM; 24 h
row,Structure (SMILES),percent viability
1,CC(=O)O[C@]1(C(C)=O)CC[C@H]2[C@@H]3C=C(Cl)C4=CC(=O)CC[C@]4(C)[C@H]3CC[C@@]21C,218%
2,N[C@@H](CSCC(=O)O)C(=O)O [carbocisteine],117%
3,CCOC(=O)/C=C/[C@H](C[C@@H]1CCNC1=O)NC(=O)[C@@H](CC(=O)[C@@H](NC(=O)c1cc(C)on1)C(C)C)Cc1ccc(F)cc1 [rupintrivir],152%
4,O=C(Oc1cccc2cccnc12)c1ccccc1 [benzoxiquine],206%
5,CN(C)[C@@H]1C(=O)C(C(=O)NCNCCCC[C@H](N)C(=O)O)=C(O)[C@@]2(O)C(=O)C3=C(O)c4c(O)cccc4[C@@](C)(O)[C@H]3C[C@@H]12 [Lymecycline],236%
6,CN/C(=N\c1ccc(C2=NNC(=O)CC2C)cc1)NC#N (stereo not given) [Siguazodan],191%
7,O=C(O)c1ccc(S(=O)(=O)N(Cl)Cl)cc1 [halazone],167%
8,CN(C)c1cc(NC(=O)CNC(C)(C)C)c(O)c2c1CC1CC3C(N(C)C)C(=O)C(C(N)=O)=C(O)C3(O)C(=O)C1=C2O (stereo not given) [Tygacil],219%
9,O=C1c2c(O)cccc2[C@@H](O[C@@H]2O[C@H](CO)[C@H](O)[C@@H](O)[C@H]2O)c2cc(CO)cc(O)c21,150%
10,CC1(C)[C@@H](OC(=O)CCC(=O)O)CC[C@]2(C)[C@H]3C(=O)C=C4[C@@H]5C[C@@](C)(C(=O)O)CC[C@]5(C)CC[C@@]4(C)[C@]3(C)CC[C@@H]12,96.2%
11,CCN(CC)CCOCCOC(=O)C1(c2ccccc2)CCCC1 [pentoxyverine],290%
12,O=C1OCCN1/N=C/c1ccc([N+](=O)[O-])o1 [furazolidone],116%
13,Oc1ccccc1/C=N/Cc1ccccc1 [norletimol],92.3%
14,O=C(CCCN1CC=C(n2c(=O)[nH]c3ccccc32)CC1)c1ccc(F)cc1 [droperidol],136%
15,CC(=O)O[C@]1(C(C)=O)CC[C@H]2[C@@H]3C=C(Cl)C4=CC(=O)[C@@H]5C[C@@H]5[C@]4(C)[C@H]3CC[C@@]21C,133%
16,CN(C)C[C@@H]1CCn2cc(c3ccccc32)C2=C(C(=O)NC2=O)c2cn(c3ccccc23)CCO1,125%
17,c1ccc(C2CN3CCSC3=N2)cc1 (stereo not given) [tetramisole],187%
18,CC1(C)S[C@@H]2[C@H](NC(=O)C(C(=O)O)c3ccccc3)C(=O)N2[C@H]1C(=O)O (stereo not given in full) [carbenicillin],226%
19,CC(=O)Oc1cc2c(s1)CCN(C(C(=O)C1CC1)c1ccccc1F)C2 (stereo not given) [prasugrel],231%
20,C=CC1=C(C(=O)O)N2C(=O)[C@@H](NC(=O)/C(=N\O)c3csc(N)n3)[C@H]2SC1 [Omnicef],277%

row,Structure (SMILES),percent viability
1,CCOc1ccc(NC(C)=O)cc1 [phenacetin],166%
2,N#CC(c1ccc(Cl)cc1)c1ccc(-n2ncc(=O)[nH]c2=O)cc1Cl (stereo not given) [clazuril],110%
3,C[C@@H]1O[C@@H](OC[C@H]2O[C@@H](Oc3c(-c4ccc(O)c(O)c4)oc4cc(O)cc(O)c4c3=O)[C@H](O)[C@@H](O)[C@@H]2O)[C@H](O)[C@H](O)[C@H]1O [rutoside],125%
4,CO[C@H]1/C=C/O[C@@]2(C)Oc3c(C)c(O)c4c(O)c(c(/C=N/N5CCN(C6CCCC6)CC5)c(O)c4c3C2=O)NC(=O)/C(C)=C\C=C\[C@H](C)[C@H](O)[C@@H](C)[C@@H](O)[C@@H](C)[C@H](OC(C)=O)[C@@H]1C [Priftin],215%
5,CCCCOc1ccc(OCCCN2CCOCC2)cc1 [pramocaine],142%
6,CCc1ccc(C(=O)C(C)CN2CCCCC2)cc1 (stereo not given) [eperisone],193%
7,NCCC(O)(P(=O)(O)O)P(=O)(O)O [pamidronic acid],242%
8,COc1cc(NCCCC(C)N)c2ncccc2c1 (stereo not given) [quinocide],145%
9,Cn1cnc([N+](=O)[O-])c1Sc1nc(N)nc2[nH]cnc12 [tiamiprine],34.9%
10,CCC(=O)NS(=O)(=O)c1ccc(-c2c(-c3ccccc3)noc2C)cc1 [parecoxib],192%
11,C[C@]12CC[C@@H]3c4ccc(O)cc4CC[C@H]3[C@@H]1CC[C@@H]2OP(=O)(O)O [polyestradiol phosphate],226%
12,Cc1scc2c1N(C(=O)CN1CCN(C)CC1)c1ccccc1NC2=O [telenzepine],151%
13,OC(c1cc(C(F)(F)F)nc2c(C(F)(F)F)cccc12)C1CCCCN1 (stereo not given) [mefloquine],434%
14,CC(=O)Nc1nnc(S(N)(=O)=O)s1 [acetazolamide],308%
15,O=C1CN(/N=C/c2ccc([N+](=O)[O-])o2)C(=O)N1 [nitrofurantoin],137% and 323%
16,CC[C@]1(O)C[C@H]2CN(CCc3c([nH]c4ccccc34)[C@@](C(=O)OC)(c3cc4c(cc3OC)N(C=O)[C@H]3[C@@](O)(C(=O)OC)[C@H](OC(C)=O)[C@]5(CC)C=CCN6CC[C@]43[C@@H]65)C2)C1 [Vincristine],14%
17,CCc1cc(Cl)c(OC)c(C(=O)NC[C@@H]2CCCN2CC)c1O [eticlopride],110%
18,COc1cc(/C=C/C(=O)N2CCN(CC(=O)NC(C)C)CC2)cc(OC)c1OC [cinpropazide],189%
19,COc1ccc(CC2c3cc(OC)c(OC)cc3CC[N+]2(C)CCC(=O)OCCCCCOC(=O)CC[N+]2(C)CCc3cc(OC)c(OC)cc3C2Cc2ccc(OC)c(OC)c2)cc1OC (stereo not given) [atracurium besilate],219% and 346%
20,CC(c1ccccc1)C1Nc2cc(Cl)c(S(N)(=O)=O)cc2S(=O)(=O)N1 (stereo not given) [bemetizide],362%

# A draw from above in order of molecular weight, ascending.
row,Structure (SMILES),percent viability
4,O=C(Oc1cccc2cccnc12)c1ccccc1 [benzoxiquine],206%
5,CCCCOc1ccc(OCCCN2CCOCC2)cc1 [pramocaine],142%
19,COc1ccc(CC2c3cc(OC)c(OC)cc3CC[N+]2(C)CCC(=O)OCCCCCOC(=O)CC[N+]2(C)CCc3cc(OC)c(OC)cc3C2Cc2ccc(OC)c(OC)c2)cc1OC (stereo not given) [atracurium besilate],219% and 346%
